# Reference: the supplement of paper PMC8728848
# The other results are listed elsewhere or left out.
# B1: HA-00510 (Pseudomonas aeruginosa), Q02V39_PSEAB (protein)
# chain: GVPIVNIATPNGAGLSNNHFRDYNVGANGLILNNATGKTQGTQLGGIILGNPNLKGQAAQVILNQVTGGNRSTLAGYTEVAGQSARVIVANPHGITCQGCGFINTPRATLTTGKPIMDGQRLERFQVDGGDIVVEGAELNVGNLEQFDLITRSAKLNAKLYAKNLNIVTGRNDVQADSLQATPRAADGSEKPQLAIDSSALGGMYAGAIRLVGTEQGVGVKLAGDMAASGGDIRIDASGKLSLAQASSQGDLKIAAQAVELNGKTYAGGSAEIRSAEELVNRQS
# Key:
# Assay in all cases: glycan array binding signal (z-score within array); higher = stronger binding
# Conditions in all cases: glycan notation: IUPAC condensed, linker removed
# [1] = target: Neu5Ac(a2-3)Gal(b1-4)GlcNAc(b1-3)[Neu5Ac(a2-3)Gal(b1-4)GlcNAc(b1-6)]GalNAc
# Method in brief: (§1)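 Glycan array data were curated from 3228 arrays in the Consortium for Functional Glycomics database and kept only where the protein sequence was available. Glycan names were converted to IUPAC-condensed notation, and columns mapping to the same glycan were averaged. The binding signal is a within-array Z-score, averaged across arrays of the same protein sequence at different concentrations or buffers and across linkers. Negative Z-scores can be read as non-binding.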
# [2] = target: Neu5Ac(a2-3)Gal(b1-4)GlcNAc(b1-6)GalNAc
# Method in brief: as §1
# [3] = target: Neu5Ac(a2-3)Gal(b1-4)GlcNAc(b1-6)[Gal(b1-3)]GalNAc
# Method in brief: as §1
# [4] = target: Neu5Ac(a2-3)Gal(b1-4)GlcNAc(b1-6)[Neu5Ac(a2-3)Gal(b1-3)]GalNAc
# Method in brief: as §1
# [5] = target: Neu5Ac(a2-3)Gal(b1-4)GlcNAc6S
# Method in brief: as §1
# [6] = target: Neu5Ac(a2-3)Gal(b1-4)[Fuc(a1-3)]GlcNAc
# Method in brief: as §1
# [7] = target: Neu5Ac(a2-3)Gal(b1-4)[Fuc(a1-3)]GlcNAc(b1-2)Man
# Method in brief: as §1
# [8] = target: Neu5Ac(a2-3)Gal(b1-4)[Fuc(a1-3)]GlcNAc(b1-3)Gal
# Method in brief: as §1
# [9] = target: Neu5Ac(a2-3)Gal(b1-4)[Fuc(a1-3)]GlcNAc(b1-3)Gal(b1-4)GlcNAc
# Method in brief: as §1
# [10] = target: Neu5Ac(a2-3)Gal(b1-4)[Fuc(a1-3)]GlcNAc(b1-3)Gal(b1-4)[Fuc(a1-3)]GlcNAc(b1-3)Gal(b1-4)[Fuc(a1-3)]GlcNAc
# Method in brief: as §1
# [11] = target: Neu5Ac(a2-3)Gal(b1-4)[Fuc(a1-3)]GlcNAc(b1-3)GalNAc
# Method in brief: as §1
# [12] = target: Neu5Ac(a2-3)Gal(b1-4)[Fuc(a1-3)]GlcNAc(b1-6)[Gal(b1-3)]GalNAc
# Method in brief: as §1
# [13] = target: Neu5Ac(a2-3)Gal(b1-4)[Fuc(a1-3)]GlcNAc(b1-6)[Neu5Ac(a2-3)Gal(b1-3)]GalNAc
# Method in brief: as §1
# [14] = target: Neu5Ac(a2-3)Gal(b1-4)[Fuc(a1-3)]GlcNAc6S
# Method in brief: as §1
# [15] = target: Neu5Ac(a2-3)Gal6S(b1-4)GlcNAc
# Method in brief: as §1
# [16] = target: Neu5Ac(a2-3)Gal6S(b1-4)[Fuc(a1-3)]GlcNAc
# Method in brief: as §1
# Neu5Ac(a2-3)GalNAc = target: Neu5Ac(a2-3)GalNAc
# Method in brief: as §1
# [17] = target: Neu5Ac(a2-3)GalNAc(b1-4)GlcNAc
# Method in brief: as §1
# [18] = target: Neu5Ac(a2-3)[GalNAc(b1-4)]Gal(b1-4)Glc
# Method in brief: as §1
# [19] = target: Neu5Ac(a2-3)[GalNAc(b1-4)]Gal(b1-4)GlcNAc
# Method in brief: as §1
# [20] = target: Neu5Ac(a2-3)[GalNAc(b1-4)]Gal(b1-4)GlcNAc(b1-3)GalNAc
# Method in brief: as §1
# [21] = target: Neu5Ac(a2-3)[Neu5Ac(a2-6)]GalNAc
# Method in brief: as §1
# Neu5Ac(a2-6)Gal = target: Neu5Ac(a2-6)Gal
# Method in brief: as §1
# [22] = target: Neu5Ac(a2-6)Gal(b1-3)GlcNAc(b1-3)[Gal(b1-4)GlcNAc(b1-6)]Gal(b1-4)Glc
# Method in brief: as §1
# Neu5Ac(a2-6)Gal(b1-4)Glc = target: Neu5Ac(a2-6)Gal(b1-4)Glc
# Method in brief: as §1
# [23] = target: Neu5Ac(a2-6)Gal(b1-4)GlcNAc
# Method in brief: as §1
# [24] = target: Neu5Ac(a2-6)Gal(b1-4)GlcNAc(b1-2)Man
# Method in brief: as §1
# [25] = target: Neu5Ac(a2-6)Gal(b1-4)GlcNAc(b1-2)Man(a1-3)Man(b1-4)GlcNAc(b1-4)GlcNAc
# Method in brief: as §1
# [26] = target: Neu5Ac(a2-6)Gal(b1-4)GlcNAc(b1-2)Man(a1-3)[Gal(b1-4)GlcNAc(b1-2)Man(a1-6)]Man(b1-4)GlcNAc(b1-4)GlcNAc
# Method in brief: as §1
# [27] = target: Neu5Ac(a2-6)Gal(b1-4)GlcNAc(b1-2)Man(a1-3)[GlcNAc(b1-2)Man(a1-6)]Man(b1-4)GlcNAc(b1-4)GlcNAc
# Method in brief: as §1
# [28] = target: Neu5Ac(a2-6)Gal(b1-4)GlcNAc(b1-2)Man(a1-3)[GlcNAc(b1-4)][Neu5Ac(a2-6)Gal(b1-4)GlcNAc(b1-2)Man(a1-6)]Man(b1-4)GlcNAc(b1-4)GlcNAc
# Method in brief: as §1
# [29] = target: Neu5Ac(a2-6)Gal(b1-4)GlcNAc(b1-2)Man(a1-3)[Man(a1-6)]Man(b1-4)GlcNAc(b1-4)GlcNAc
# Method in brief: as §1
# [30] = target: Neu5Ac(a2-6)Gal(b1-4)GlcNAc(b1-2)Man(a1-3)[Neu5Ac(a2-3)Gal(b1-4)GlcNAc(b1-2)Man(a1-6)]Man(b1-4)GlcNAc(b1-4)GlcNAc
# Method in brief: as §1
# [31] = target: Neu5Ac(a2-6)Gal(b1-4)GlcNAc(b1-2)Man(a1-3)[Neu5Ac(a2-6)Gal(b1-4)GlcNAc(b1-2)Man(a1-6)]Man(b1-4)GlcNAc(b1-4)GlcNAc
# Method in brief: as §1
# [32] = target: Neu5Ac(a2-6)Gal(b1-4)GlcNAc(b1-2)Man(a1-3)[Neu5Ac(a2-6)Gal(b1-4)GlcNAc(b1-2)Man(a1-6)]Man(b1-4)GlcNAc(b1-4)[Fuc(a1-6)]GlcNAc
# Method in brief: as §1
# [33] = target: Neu5Ac(a2-6)Gal(b1-4)GlcNAc(b1-2)Man(a1-6)Man(b1-4)GlcNAc(b1-4)GlcNAc
# Method in brief: as §1
# [34] = target: Neu5Ac(a2-6)Gal(b1-4)GlcNAc(b1-2)Man(a1-6)[Gal(b1-4)GlcNAc(b1-2)Man(a1-3)]Man(b1-4)GlcNAc(b1-4)GlcNAc
# Method in brief: as §1
# [35] = target: Neu5Ac(a2-6)Gal(b1-4)GlcNAc(b1-2)Man(a1-6)[GlcNAc(b1-2)Man(a1-3)]Man(b1-4)GlcNAc(b1-4)GlcNAc
# Method in brief: as §1
# [36] = target: Neu5Ac(a2-6)Gal(b1-4)GlcNAc(b1-2)Man(a1-6)[Man(a1-3)]Man(b1-4)GlcNAc(b1-4)GlcNAc
# Method in brief: as §1
# [37] = target: Neu5Ac(a2-6)Gal(b1-4)GlcNAc(b1-2)[Neu5Ac(a2-6)Gal(b1-4)GlcNAc(b1-4)]Man(a1-3)[GlcNAc(b1-4)][Neu5Ac(a2-6)Gal(b1-4)GlcNAc(b1-2)[Neu5Ac(a2-6)Gal(b1-4)GlcNAc(b1-6)]Man(a1-6)]Man(b1-4)GlcNAc(b1-4)GlcNAc
# Method in brief: as §1
# [38] = target: Neu5Ac(a2-6)Gal(b1-4)GlcNAc(b1-2)[Neu5Ac(a2-6)Gal(b1-4)GlcNAc(b1-4)]Man(a1-3)[GlcNAc(b1-4)][Neu5Ac(a2-6)Gal(b1-4)GlcNAc(b1-4)Man(a1-6)]Man(b1-4)GlcNAc(b1-4)GlcNAc
# Method in brief: as §1
# [39] = target: Neu5Ac(a2-6)Gal(b1-4)GlcNAc(b1-2)[Neu5Ac(a2-6)Gal(b1-4)GlcNAc(b1-6)]Man(a1-6)[Neu5Ac(a2-6)Gal(b1-4)GlcNAc(b1-2)Man(a1-3)][GlcNAc(b1-4)]Man(b1-4)GlcNAc(b1-4)GlcNAc
# Method in brief: as §1
# [40] = target: Neu5Ac(a2-6)Gal(b1-4)GlcNAc(b1-3)Gal(b1-3)GlcNAc
# Method in brief: as §1
# [41] = target: Neu5Ac(a2-6)Gal(b1-4)GlcNAc(b1-3)Gal(b1-4)GlcNAc
# Method in brief: as §1
# [42] = target: Neu5Ac(a2-6)Gal(b1-4)GlcNAc(b1-3)Gal(b1-4)GlcNAc(b1-2)Man(a1-3)[Neu5Ac(a2-6)Gal(b1-4)GlcNAc(b1-3)Gal(b1-4)GlcNAc(b1-2)Man(a1-6)]GalNAc
# Method in brief: as §1
# [43] = target: Neu5Ac(a2-6)Gal(b1-4)GlcNAc(b1-3)Gal(b1-4)GlcNAc(b1-3)Gal(b1-4)GlcNAc
# Method in brief: as §1
binder,measurement,setting,value
B1,glycan array binding signal (z-score),[1],-0.496
same,glycan array binding signal (z-score),[2],0.14
same,glycan array binding signal (z-score),[3],1.16
same,glycan array binding signal (z-score),[4],-0.64
same,glycan array binding signal (z-score),[5],-0.604
same,glycan array binding signal (z-score),[6],0.033
same,glycan array binding signal (z-score),[7],-1.16
same,glycan array binding signal (z-score),[8],-0.741
same,glycan array binding signal (z-score),[9],1
same,glycan array binding signal (z-score),[10],-0.98
same,glycan array binding signal (z-score),[11],2.86
same,glycan array binding signal (z-score),[12],-0.302
same,glycan array binding signal (z-score),[13],0.217
same,glycan array binding signal (z-score),[14],-1.9
same,glycan array binding signal (z-score),[15],-0.228
same,glycan array binding signal (z-score),[16],-0.511
same,glycan array binding signal (z-score),Neu5Ac(a2-3)GalNAc,-0.748
same,glycan array binding signal (z-score),[17],1.19
same,glycan array binding signal (z-score),[18],-0.269
same,glycan array binding signal (z-score),[19],-0.631
same,glycan array binding signal (z-score),[20],0.049
same,glycan array binding signal (z-score),[21],0.268
same,glycan array binding signal (z-score),Neu5Ac(a2-6)Gal,0.437
same,glycan array binding signal (z-score),[22],0.292
same,glycan array binding signal (z-score),Neu5Ac(a2-6)Gal(b1-4)Glc,0.506
same,glycan array binding signal (z-score),[23],-0.542
same,glycan array binding signal (z-score),[24],2.52
same,glycan array binding signal (z-score),[25],-0.14
same,glycan array binding signal (z-score),[26],0.172
same,glycan array binding signal (z-score),[27],-0.189
same,glycan array binding signal (z-score),[28],-1.02
same,glycan array binding signal (z-score),[29],0.542
same,glycan array binding signal (z-score),[30],-0.534
same,glycan array binding signal (z-score),[31],-0.565
same,glycan array binding signal (z-score),[32],0.558
same,glycan array binding signal (z-score),[33],-0.187
same,glycan array binding signal (z-score),[34],0.066
same,glycan array binding signal (z-score),[35],-0.425
same,glycan array binding signal (z-score),[36],-0.358
same,glycan array binding signal (z-score),[37],-0.337
same,glycan array binding signal (z-score),[38],0.235
same,glycan array binding signal (z-score),[39],-0.499
same,glycan array binding signal (z-score),[40],2.34
same,glycan array binding signal (z-score),[41],-0.921
same,glycan array binding signal (z-score),[42],-0.078
same,glycan array binding signal (z-score),[43],-0.919

# Some of the entries above in a different format:
binder	measurement	setting	value
B1	glycan array binding signal (z-score)	[4]	-0.64
same	glycan array binding signal (z-score)	[21]	0.268

# Pulled one by one from the entries so far (2):
binder,measurement,setting,value
B1,glycan array binding signal (z-score),[35],-0.425
same,glycan array binding signal (z-score),Neu5Ac(a2-6)Gal,0.437
